Test results published in PMC4757782.
Results are given in words; binding and its absence hold for the method and conditions named. Some entries that bind do so weakly or less than the wild type.

Biological target: T1, mouse Vipr2 (receptor for vasoactive intestinal peptide) (mouse) (UniProt P41588)
T1 sequence: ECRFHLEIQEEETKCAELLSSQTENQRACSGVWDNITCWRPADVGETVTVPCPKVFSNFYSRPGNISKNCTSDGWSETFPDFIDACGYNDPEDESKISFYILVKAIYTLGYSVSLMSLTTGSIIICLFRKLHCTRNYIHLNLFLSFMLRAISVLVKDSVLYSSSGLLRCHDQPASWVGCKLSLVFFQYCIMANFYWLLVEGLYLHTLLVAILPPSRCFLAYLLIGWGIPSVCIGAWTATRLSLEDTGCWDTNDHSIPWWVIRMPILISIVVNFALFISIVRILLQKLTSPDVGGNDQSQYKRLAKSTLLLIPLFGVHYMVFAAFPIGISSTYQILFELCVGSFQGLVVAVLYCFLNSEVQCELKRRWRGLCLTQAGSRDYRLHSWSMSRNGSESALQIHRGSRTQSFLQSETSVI
Experiment: radioligand binding; membrane fractions (10 ug protein) of Flp-In TREx293-Gpr176(tet-on)/Vipr2 cells, with or without Dox, incubated with 1, 10 or 100 nM [125I]-Vip in HBSS, 5 mM HEPES pH 7.5, 0.1% BSA, 60 min at 4 C; bound peptide separated by centrifugation; specific binding by subtracting the radioactivity of parental Flp-In TREx293 cells; only the binder purified

HSDAVFTDNYTRLRKQMAVKKYLNSILN (peptide, UniProt P01282 125-152, 125I label (position not given)) [[^125I]-labelled vasoactive intestinal peptide (Vip)]
binding: binds
